Assay results taken from paper doi:10.1101/806802.
Results are given in words; binding and its absence hold for the method and conditions named. For part of these data: Binding seen in cells or lysates may run through a third protein. Some results given as binding are weak or reduced against the parent protein; the word gives no strength. For part of these data: Tags and fused reporters may be left off the sequences shown. One block for each binder: values may come before it.

Columns and labels:
[1] = biological target: EDR1^D810A, full-length substrate-trap mutant, GAL4 DNA-binding domain fusion (Arabidopsis thaliana) (UniProt Q9FPR3); assay: two-hybrid
[2] = biological target: EDR1 (ENHANCED DISEASE …1), full-length, GAL4 DNA-binding domain fusion (Arabidopsis thaliana) (UniProt Q9FPR3); assay: two-hybrid
[3] = biological target: T1, EDS1, full-length, GAL4 DNA-binding domain fusion in pBridge (Arabidopsis thaliana) (UniProt Q9SU72); assay: yeast three-hybrid
T1 sequence: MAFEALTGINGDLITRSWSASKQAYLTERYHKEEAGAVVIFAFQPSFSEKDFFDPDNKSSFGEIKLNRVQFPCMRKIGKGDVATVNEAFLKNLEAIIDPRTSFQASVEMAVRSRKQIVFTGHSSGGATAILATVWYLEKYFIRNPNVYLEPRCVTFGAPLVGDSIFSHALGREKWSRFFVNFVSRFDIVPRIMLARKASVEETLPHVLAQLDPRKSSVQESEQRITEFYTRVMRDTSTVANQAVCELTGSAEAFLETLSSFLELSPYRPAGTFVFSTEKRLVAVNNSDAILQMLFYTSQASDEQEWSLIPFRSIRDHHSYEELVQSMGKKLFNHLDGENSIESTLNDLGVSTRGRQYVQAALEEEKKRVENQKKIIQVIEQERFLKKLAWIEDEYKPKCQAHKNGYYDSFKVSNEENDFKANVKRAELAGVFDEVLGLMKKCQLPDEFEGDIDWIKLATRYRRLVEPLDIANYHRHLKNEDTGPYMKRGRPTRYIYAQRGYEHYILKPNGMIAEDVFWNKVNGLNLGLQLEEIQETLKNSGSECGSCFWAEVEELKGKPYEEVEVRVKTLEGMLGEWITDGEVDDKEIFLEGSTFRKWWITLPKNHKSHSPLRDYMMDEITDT

[4] = biological target: T1, EDS1, full-length, GAL4 DNA-binding domain fusion in pBridge (Arabidopsis thaliana); assay: two-hybrid
[5] = biological target: EDR1-sYFP (Arabidopsis thaliana) (UniProt Q9FPR3); assay: co-IP
[6] = biological target: EDR1^ST-sYFP (D810A) (Arabidopsis thaliana) (UniProt Q9FPR3); assay: co-IP
[7] = biological target: T2, PAD4-mCherry (Arabidopsis thaliana) (UniProt Q9S745); assay: co-IP
T2 sequence: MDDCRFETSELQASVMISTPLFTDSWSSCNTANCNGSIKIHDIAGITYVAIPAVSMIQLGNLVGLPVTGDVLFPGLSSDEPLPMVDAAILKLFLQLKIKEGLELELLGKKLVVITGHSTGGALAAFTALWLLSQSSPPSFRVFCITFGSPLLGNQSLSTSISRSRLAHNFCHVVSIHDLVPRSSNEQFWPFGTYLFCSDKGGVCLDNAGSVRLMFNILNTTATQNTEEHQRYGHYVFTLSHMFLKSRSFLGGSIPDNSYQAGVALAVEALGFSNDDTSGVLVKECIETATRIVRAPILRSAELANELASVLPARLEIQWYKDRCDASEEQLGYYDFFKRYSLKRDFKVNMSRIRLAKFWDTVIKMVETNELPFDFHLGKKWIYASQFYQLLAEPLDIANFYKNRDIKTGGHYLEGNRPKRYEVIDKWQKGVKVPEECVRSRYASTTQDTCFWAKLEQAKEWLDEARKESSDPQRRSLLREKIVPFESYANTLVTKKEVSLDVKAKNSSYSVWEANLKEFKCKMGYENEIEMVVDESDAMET

B1: EDS1 (ENHANCED DISEASE SUSCEPTIBILITY1), full-length, GAL4 activation domain fusion (protein, UniProt Q9SU72 1-623)
chain: MAFEALTGINGDLITRSWSASKQAYLTERYHKEEAGAVVIFAFQPSFSEKDFFDPDNKSSFGEIKLNRVQFPCMRKIGKGDVATVNEAFLKNLEAIIDPRTSFQASVEMAVRSRKQIVFTGHSSGGATAILATVWYLEKYFIRNPNVYLEPRCVTFGAPLVGDSIFSHALGREKWSRFFVNFVSRFDIVPRIMLARKASVEETLPHVLAQLDPRKSSVQESEQRITEFYTRVMRDTSTVANQAVCELTGSAEAFLETLSSFLELSPYRPAGTFVFSTEKRLVAVNNSDAILQMLFYTSQASDEQEWSLIPFRSIRDHHSYEELVQSMGKKLFNHLDGENSIESTLNDLGVSTRGRQYVQAALEEEKKRVENQKKIIQVIEQERFLKKLAWIEDEYKPKCQAHKNGYYDSFKVSNEENDFKANVKRAELAGVFDEVLGLMKKCQLPDEFEGDIDWIKLATRYRRLVEPLDIANYHRHLKNEDTGPYMKRGRPTRYIYAQRGYEHYILKPNGMIAEDVFWNKVNGLNLGLQLEEIQETLKNSGSECGSCFWAEVEELKGKPYEEVEVRVKTLEGMLGEWITDGEVDDKEIFLEGSTFRKWWITLPKNHKSHSPLRDYMMDEITDT
binding [1]: binds | binding [2]: binds

B4: PAD4-mCherry (protein, UniProt Q9S745 1-541)
chain: MDDCRFETSELQASVMISTPLFTDSWSSCNTANCNGSIKIHDIAGITYVAIPAVSMIQLGNLVGLPVTGDVLFPGLSSDEPLPMVDAAILKLFLQLKIKEGLELELLGKKLVVITGHSTGGALAAFTALWLLSQSSPPSFRVFCITFGSPLLGNQSLSTSISRSRLAHNFCHVVSIHDLVPRSSNEQFWPFGTYLFCSDKGGVCLDNAGSVRLMFNILNTTATQNTEEHQRYGHYVFTLSHMFLKSRSFLGGSIPDNSYQAGVALAVEALGFSNDDTSGVLVKECIETATRIVRAPILRSAELANELASVLPARLEIQWYKDRCDASEEQLGYYDFFKRYSLKRDFKVNMSRIRLAKFWDTVIKMVETNELPFDFHLGKKWIYASQFYQLLAEPLDIANFYKNRDIKTGGHYLEGNRPKRYEVIDKWQKGVKVPEECVRSRYASTTQDTCFWAKLEQAKEWLDEARKESSDPQRRSLLREKIVPFESYANTLVTKKEVSLDVKAKNSSYSVWEANLKEFKCKMGYENEIEMVVDESDAMET
binding [6]: binds

Continued, values first:

binding [3]: binds | binding [1]: binds | binding [4]: binds
B2: PAD4 (PHYTOALEXIN …4), full-length, GAL4 activation domain fusion (protein, UniProt Q9S745 1-541)
chain: MDDCRFETSELQASVMISTPLFTDSWSSCNTANCNGSIKIHDIAGITYVAIPAVSMIQLGNLVGLPVTGDVLFPGLSSDEPLPMVDAAILKLFLQLKIKEGLELELLGKKLVVITGHSTGGALAAFTALWLLSQSSPPSFRVFCITFGSPLLGNQSLSTSISRSRLAHNFCHVVSIHDLVPRSSNEQFWPFGTYLFCSDKGGVCLDNAGSVRLMFNILNTTATQNTEEHQRYGHYVFTLSHMFLKSRSFLGGSIPDNSYQAGVALAVEALGFSNDDTSGVLVKECIETATRIVRAPILRSAELANELASVLPARLEIQWYKDRCDASEEQLGYYDFFKRYSLKRDFKVNMSRIRLAKFWDTVIKMVETNELPFDFHLGKKWIYASQFYQLLAEPLDIANFYKNRDIKTGGHYLEGNRPKRYEVIDKWQKGVKVPEECVRSRYASTTQDTCFWAKLEQAKEWLDEARKESSDPQRRSLLREKIVPFESYANTLVTKKEVSLDVKAKNSSYSVWEANLKEFKCKMGYENEIEMVVDESDAMET

binding [5]: binds | binding [6]: binds | binding [7]: binds
B3: EDS1-3xHA (protein, UniProt Q9SU72 1-623)
chain: MAFEALTGINGDLITRSWSASKQAYLTERYHKEEAGAVVIFAFQPSFSEKDFFDPDNKSSFGEIKLNRVQFPCMRKIGKGDVATVNEAFLKNLEAIIDPRTSFQASVEMAVRSRKQIVFTGHSSGGATAILATVWYLEKYFIRNPNVYLEPRCVTFGAPLVGDSIFSHALGREKWSRFFVNFVSRFDIVPRIMLARKASVEETLPHVLAQLDPRKSSVQESEQRITEFYTRVMRDTSTVANQAVCELTGSAEAFLETLSSFLELSPYRPAGTFVFSTEKRLVAVNNSDAILQMLFYTSQASDEQEWSLIPFRSIRDHHSYEELVQSMGKKLFNHLDGENSIESTLNDLGVSTRGRQYVQAALEEEKKRVENQKKIIQVIEQERFLKKLAWIEDEYKPKCQAHKNGYYDSFKVSNEENDFKANVKRAELAGVFDEVLGLMKKCQLPDEFEGDIDWIKLATRYRRLVEPLDIANYHRHLKNEDTGPYMKRGRPTRYIYAQRGYEHYILKPNGMIAEDVFWNKVNGLNLGLQLEEIQETLKNSGSECGSCFWAEVEELKGKPYEEVEVRVKTLEGMLGEWITDGEVDDKEIFLEGSTFRKWWITLPKNHKSHSPLRDYMMDEITDT
